Measured values from the supplement of paper PMC10735217.
Values joined by “and” are separate entries in the source; they are usually repeats but may differ in a detail not shown here. Equal values may be shown once. Where a name gives a salt, the structure may show the parent alone. The list shows a part of the results. Single values are uncertain here, since repeats match poorly.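 Human kidney-derived cells stably carry a construct in which eight TEAD-binding elements drive luciferase, measured by luminescence in a drug-repurposing library screen. A hit is any compound whose signal exceeds the plate mean by more than five robust Z scores.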

System: HEK293A TEAD-LUC reporter
Assay: TEAD-luciferase reporter activity (YAP activation), robust Z score vs plate; higher = stronger YAP/TEAD activation
Conditions: 24 h

Row | Compound | TEAD-luciferase reporter activity (compound concentration: 200 nM) | TEAD-luciferase reporter activity (compound concentration: 10 uM) | TEAD-luciferase reporter activity (compound concentration: 2 uM)
1 | CN(Cc1ccccc1F)C1CCc2ccccc21 (configuration not stated) | inactive: 3.32 | inactive: 0.671 | 
2 | OCC(CO)NC1CC(O)(CO)C(O)C(O)C1O (configuration not stated) [voglibose] | inactive: -0.275 | inactive: 2.58 | inactive: 0.405
3 | CCC(C)OC(=O)Cc1oc2ccccc2c1C(=O)c1cc(I)c(OCCN(CC)CC)c(I)c1 (configuration not stated) | inactive: 0.346 | inactive: 0.257 | inactive: 1.37
4 | COn1cc(C(=O)O)c(=O)c2cc3c(cc21)OCO3 [Miloxacin] | inactive: -0.947 | inactive: 0.166 | inactive: 2.22
5 | COc1ccc2c(O[C@H]3CC4C(=O)N(C)CCCC/C=C\[C@@H]5C[C@@]5(C(=O)NS(=O)(=O)C5CC5)NC(=O)[C@@H]4C3)cc(-c3nc(C(C)C)cs3)nc2c1C (some centres not stated) [Simeprevir] | inactive: -0.00135 | inactive: -0.5 | inactive: 1.52
6 | CCc1ccc2c(c1)N(CC(C)CN(C)C)c1ccccc1S2 (configuration not stated) [Ethylisobutrazine Hydrochloride] | inactive: -0.833 | inactive: -0.0694 | inactive: 1.94
7 | COc1cc2nc(N3CCN(C(=O)C4CC5C=CC4CC5)CC3)nc(N)c2cc1OC (configuration not stated) | inactive: 1.95 | inactive: -1.46 | inactive: 1
8 | N[C@@H](Cc1ccccn1)c1ccccc1 [Lanicemine hydrochloride] | inactive: -0.941 | inactive: -0.124 | inactive: -1.27
9 | CCCc1c(OCCCOc2cc(NC(=O)c3nnn[nH]3)c(C)cc2Cl)ccc(C(C)=O)c1O | inactive: -0.971 | inactive: -0.263 | inactive: -1.12
10 | COc1cccc(Nc2ncnn3ccc(CN4CC[C@@H](N)[C@H](O)C4)c23)c1 | inactive: -1.51 | inactive: -2.32 | inactive: -1.98
11 | CCCCc1ccc(C(N)=O)nc1 [Bupicomide] | inactive: 0.693 | inactive: 1.1 | inactive: 0.175
12 | C1COC(NC2CC3CCC2C3)=N1 (configuration not stated) | inactive: 0.156 | inactive: -1.11 | inactive: 0.551
13 | CC(=O)c1cccc(NC(=O)Cn2c(-c3nonc3N)nc3ccccc32)c1 | inactive: -0.631 | inactive: -1.61 | inactive: -0.0489
14 | N#Cc1cc(-c2ccc(O)c(F)c2)cc2ccc(O)cc12 | inactive: -0.277 | inactive: -0.299 | inactive: -1.24
15 | CCCCCCCC(=O)N[C@H](CN1CCCC1)[C@H](O)c1ccc2c(c1)OCCO2 [Eliglustat (hemitartrate)] | inactive: -0.315 | inactive: 1.04 | inactive: -0.232
16 | c1ccc(Oc2cccnc2)cc1 | inactive: -1.37 | inactive: -0.364 | inactive: -0.782
17 | CC(C)OC(=O)[C@@H]1CC2=CC(=O)CC[C@]2(C)[C@H]2CC[C@@]3(C)[C@@H](CC[C@@]34CCC(=O)O4)[C@H]12 [dicire] | inactive: -0.338 | inactive: -0.977 | inactive: -0.742
18 | NC(=O)[C@@H]1CC[C@H](c2ccc(OCc3ccccc3F)cc2)N1 | inactive: -0.528 | inactive: -1.24 | inactive: -2.3
19 | Cc1nc2ccccc2c(-c2ccc3c4c(ccnc24)CCO3)c1[C@H](OC(C)(C)C)C(=O)O | inactive: -0.405 | inactive: 1.59 | inactive: 1.6 and inactive: -0.66

Row | Compound | TEAD-luciferase reporter activity (compound concentration: 200 nM) | TEAD-luciferase reporter activity (compound concentration: 10 uM) | TEAD-luciferase reporter activity (compound concentration: 2 uM)
20 | C[C@H](CCC(=O)O)[C@H]1CC[C@H]2[C@@H]3C[C@H](O)[C@@H]4C[C@H](O)CC[C@]4(C)[C@H]3CC[C@]12C | inactive: -0.237 | inactive: 0.00673 | inactive: 0.0567
21 | COc1ccc(C2CC(=O)N(C(=O)NCc3cccnc3)N2C)cc1OC1CCCC1 (configuration not stated) | inactive: -1.89 | inactive: 0.193 | inactive: -0.172
22 | C[C@@H]1CN(c2c(F)c(N)c3c(=O)c(C(=O)O)cn(C4CC4)c3c2F)C[C@H](C)N1 [sparfloxacin] | inactive: -1.3 | inactive: 0.774 | inactive: -0.583
23 | CCCCCCCCOc1ccccc1C(=O)Nc1ccc(C(=O)OCC[N+](C)(CC)CC)cc1 [otilonium bromide] | inactive: -1.41 | inactive: -2.92 | inactive: -2.49
24 | CO[C@H]1O[C@H](CNC(=O)N(CCCl)N=O)[C@@H](O)[C@H](O)[C@H]1O [Ranimustine] | inactive: -0.828 | inactive: -0.454 | inactive: -0.535
25 | Cc1ccc(C(=O)N(CCCN)C(c2nc3snc(C)c3c(=O)n2Cc2ccccc2)C(C)C)cc1 (configuration not stated) | inactive: -0.0928 | inactive: 1.1 | inactive: -0.614
26 | CC(Nc1ccc(C#N)cc1Cl)C(C)(C)O (configuration not stated) | inactive: -0.236 | inactive: 0.255 | inactive: -1.9
27 | COCCN1CCC(N(Cc2ccc(-c3ccc(C(F)(F)F)cc3)cc2)C(=O)c2ccco2)CC1 | inactive: -0.575 | inactive: -0.066 | inactive: 0.299
28 | O=C1NC2(CCN(C(=O)c3ccccc3)CC2)Oc2ccccc21 | inactive: -2.35 | inactive: 0.911 | 
29 | CCCC(O)(CC(=O)O)CC(=O)O | inactive: -1.46 | inactive: -1.46 | inactive: -1.81
30 | CC[C@H](C)[C@@H]([C@@H](CC(=O)N1CCC[C@H]1[C@H](OC)[C@@H](C)C(=O)N[C@@H](Cc1ccccc1)c1nccs1)OC)N(C)C(=O)[C@@H](NC(=O)[C@H](C(C)C)N(C)C)C(C)C [Dolastatin 10] | inactive: 4.38 | inactive: 4.8 | inactive: 3.07
31 | COc1ccc(OC2CN(Cc3cccc4ccccc34)C2)cc1 | inactive: 0.59 | inactive: -1.07 | 
32 | O=C(/C=C/c1ccc(O)c(O)c1)c1ccc(O)cc1O | inactive: -1.26 | inactive: 1.23 | inactive: -0.945
33 | OC(C1=NCCN1)(c1ccc(Cl)cc1)c1ccccn1 (configuration not stated) | inactive: -1.31 | inactive: 1.61 | inactive: -0.127
34 | C=CC(C)(O)CCC=C(C)C (single isomer, unassigned; (-)) [(-)-Linalool] | inactive: -2.7 | inactive: -1.35 | inactive: -1.81
35 | O=C1c2ccccc2CN1C1CCN(Cc2ccccc2)CC1 | inactive: -1.08 | inactive: 0.197 | 
36 | CC(C)Oc1cc(-n2cnc3ccc(N[C@@H](C)c4ncc(F)cn4)nc32)n[nH]1 | inactive: 1.21 | inactive: 0.619 | inactive: -1.12
37 | [I-] [Potassium iodide] | inactive: -0.27 | inactive: 0.33 | 
38 | C[C@@H]1NC(=O)CO[C@H]1c1ccccc1 | inactive: -1.32 | inactive: -0.787 | inactive: 0.725

Row | Compound | TEAD-luciferase reporter activity (compound concentration: 200 nM) | TEAD-luciferase reporter activity (compound concentration: 10 uM) | TEAD-luciferase reporter activity (compound concentration: 2 uM)
39 | NS(=O)(=O)c1ccc(NC(=O)CSc2nnc(Br)n2-c2ccc(C3CC3)c3ccccc23)c(Cl)c1 | inactive: -0.381 | inactive: -1.47 | inactive: -1.66
40 | COc1ccc2ccc(C(C)CO)cc2c1 (configuration not stated) | inactive: -2.24 | inactive: -1.22 | inactive: -1.56
41 | Cc1cc(CC(=O)O)c(C)n1-c1ccc(Cl)cc1 [clopirac] | inactive: 1.39 | inactive: -0.18 | inactive: 0.757
42 | CCOC(=O)[C@H](CCc1ccccc1)N[C@@H](C)C(=O)N1[C@H](C(=O)O)C[C@@H]2CCC[C@@H]21 [ramipril] |  |  | inactive: -1.3
43 | CCOC(=O)[C@H](CCc1ccccc1)N[C@@H](C)C(=O)N1[C@H](C(=O)O)C[C@@H]2CCC[C@@H]21 | inactive: -0.522 | inactive: 0.47 | inactive: -0.809
44 | COc1ccc(-c2nc(C(F)(F)F)[nH]c2-c2ccc(OC)cc2)cc1 [flumazole] | inactive: -1.82 | inactive: 2.74 | inactive: -0.0694
45 | CCN(CC)CCOc1ccc2nc(N(C)C)sc2c1 | inactive: -0.395 | inactive: 0.464 | inactive: -0.0568
46 | O=Cc1c(O)cccc1OCc1ccc(C(=O)O)cc1 | inactive: -1.09 | inactive: 0.0665 | inactive: 0.158
47 | CCOC(=O)C(C)(N)Cc1cc(I)c(Oc2cc(I)c(O)c(I)c2)c(I)c1 (configuration not stated) [etiroxate] | inactive: -1.25 | active: 7.08 | inactive: -1.43
48 | CC(C)(C)[C@H](NC(=O)[C@@H](NC(=O)c1cnccn1)C1CCCCC1)C(=O)O | inactive: -1.02 | inactive: 0.914 | inactive: 0.0202
49 | C=C(Cl)[C@](Cl)(CBr)CC[C@@H](Br)C(C)(C)Cl | inactive: -1.62 | inactive: -0.951 | inactive: 0.648
50 | Cc1ccc(/C(=C\CN2CCCC2)c2cccc(/C=C/C(=O)O)n2)cc1 [acrivastine] | inactive: -1.44 | inactive: -0.295 | inactive: 0.679
51 | CCSc1ncccc1C(=O)O[C@H]1CO[C@H]2[C@@H]1OC[C@H]2O[N+](=O)[O-] | inactive: -1.13 | inactive: 0.721 | inactive: 0.264
52 | CCOC(=O)c1cccnc1N1CCN(Cc2c(F)cccc2Cl)CC1 | inactive: -0.975 | inactive: 2.49 | inactive: -0.358
53 | O=C(c1ccccc1F)N1CCC(N2CCCC2=O)CC1 | inactive: -1.8 | inactive: 2.2 | 
54 | O=C1c2c(O)cc(O)cc2O[C@H](c2cc(O)c(O)c(O)c2)[C@H]1O [Dihydromyricetin] |  |  | active: 8.84
55 | O=C1c2c(O)cc(O)cc2O[C@H](c2cc(O)c(O)c(O)c2)[C@H]1O [Dihydromyricetin (Ampeloptin)] | inactive: -0.129 | inactive: 1.12 | 
56 | Nc1ccc(S(=O)(=O)c2ccc(N)cc2)cc1 | inactive: -0.575 | inactive: 0.906 | 
57 | Nc1ccc(S(=O)(=O)c2ccc(N)cc2)cc1 [dapsone, SMP] |  |  | inactive: 0.61

Given tab-delimited: part of the list above
Row	Compound	TEAD-luciferase reporter activity (compound concentration: 200 nM)	TEAD-luciferase reporter activity (compound concentration: 10 uM)	TEAD-luciferase reporter activity (compound concentration: 2 uM)
44	COc1ccc(-c2nc(C(F)(F)F)[nH]c2-c2ccc(OC)cc2)cc1 [flumazole]	inactive: -1.82	inactive: 2.74	inactive: -0.0694
45	CCN(CC)CCOc1ccc2nc(N(C)C)sc2c1	inactive: -0.395	inactive: 0.464	inactive: -0.0568
56	Nc1ccc(S(=O)(=O)c2ccc(N)cc2)cc1	inactive: -0.575	inactive: 0.906	
57	Nc1ccc(S(=O)(=O)c2ccc(N)cc2)cc1 [dapsone, SMP]			inactive: 0.61
